In PubChem BioAssay AID504467 (National Center for Advancing Translational Sciences (NCATS), 2011):
Several values for one entry are separate records, joined by “and”; a condition that tells them apart may be missing. Equal values may be shown once. Screen size: about 330,000 compounds; about 7,700 (2.3%) were called active. The shares of active, inactive and inconclusive entries below differ from those in the screen. Calls follow the shape of the dose curve; as a rule, active = well fitted inhibition curve with a large enough effect; inconclusive = small, poorly fitted or top-dose-only effect, or effect the other way; inactive = flat fitted curve, though single readings scatter. Potencies beside an inconclusive call are fits to weak or partial responses and may not hold up.

Assay: qHTS screen for small molecules that inhibit ELG1-dependent DNA repair in human embryonic kidney (HEK293T) cells expressing luciferase-tagged ELG1; also: nearly all actives have a fitted effect of over 55% in size
Conditions: HEK293T ELG1-luciferase reporter, luminescence, 16 h, DNA damage induced by 5-fluorouridine; activity change, negative = inhibition: at 46.1 µM (top of the series)
Method in brief: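 Quantitative HTS, concentration-response format. 2,000 cells/well co-treated with 5-fluorouridine and compound, 16 hr in 5% CO2 at 37 °C; ONE-Glo luminescence read after 30 min.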
% is scaled to controls: 0 for no effect and ±100 for the full control effect; potency is read from the fitted curve at half-maximal effect.

Question: Which Potency does the source give for CCOC(=O)C1=C(N)Oc2cc(C)n(CCc3ccc(OC)c(OC)c3)c(=O)c2C1c1cccnc1 (stereo unspecified) here?
Answer: Its Potency is inconclusive: 18.4 µM [inhibitor, single point].

Question: Which activity change, negative = inhibition does the source give for Cc1c(C(=O)N2CCOCC2)oc2ccc(S(=O)(=O)N3CCCC3)cc12 here?
Answer: Its activity change, negative = inhibition is inconclusive: 96.5% [activator].

Question: Which Potency does the source give for Cc1ccc2nc(/C(C#N)=C\c3ccc(OC(=O)c4cccs4)cc3)[nH]c2c1 here?
Answer: Its Potency is inconclusive: 1.64 µM [activator, partial curve].

Question: With C/C(=N\Nc1ccccc1)c1cc2ccccc2oc1=O as the compound, how does the Potency read?
Answer: The Potency was inconclusive: 29.1 µM [activator, single point].

Question: Which Potency does the source give for O=C(COc1ccc2c(c1)OCO2)Nc1nccs1 here?
Answer: The Potency was inconclusive: 2.06 µM [activator, partial curve].

Question: Which Potency does the source give for COc1cc(/C=C/c2ccc3cccc(O)c3n2)c(Br)cc1O here?
Answer: Its Potency is inconclusive: 23.1 µM [activator, single point].

Question: For Cc1cccc(CN2CCN(C(=O)c3ccccc3F)CC2)c1, which Potency is on record?
Answer: Its Potency is “inactive”.

Question: With Cc1ccccc1/C=C/c1nc2ccccc2c(=O)[nH]1 as the compound, how does the Potency read?
Answer: The Potency was inconclusive: 2.06 µM [activator, partial curve].

Question: For CC(C)Oc1cccc(C(=O)C2CCCN(C(=O)c3cc(C(F)(F)F)[nH]n3)C2)c1 (stereo unspecified), which Potency is on record?
Answer: Its Potency is “inactive”.

Question: Which Potency does the source give for C[C@@H]1CN([C@H](C)CO)C(=O)Cc2cc(NC(=O)CCC(F)(F)F)ccc2O[C@@H]1CN(C)C(=O)Nc1ccccc1 here?
Answer: Its Potency is inconclusive: 29.1 µM [activator, partial curve, poor fit].

Question: With COc1cc(C(=O)Nc2ccc(NC(=O)c3ccco3)nc2)cc(OC)c1OC as the compound, how does the Potency read?
Answer: Its Potency is inconclusive: 20.6 µM [inhibitor, single point].

Question: With Cc1sc2nc(CSCC(=O)Nc3ccc(Cl)cc3F)[nH]c(=O)c2c1C as the compound, how does the Potency read?
Answer: The Potency was “inactive”.

Question: Which Potency does the source give for CCCCN(C)C(=O)c1cccc(OC2CCN(CC(C)(C)C)CC2)c1 here?
Answer: The Potency was “inactive”.

Question: For COc1ccc(S(=O)(=O)N2CCOC2CNC(=O)C(=O)NCCc2c[nH]c3ccccc23)cc1 (stereo unspecified), which Potency is on record?
Answer: Its Potency is inconclusive: 23.1 µM [inhibitor, single point].

Question: For C[C@H](CO)N1C[C@H](C)[C@@H](CN(C)Cc2ccc(-c3ccccc3)cc2)Oc2c(NC(=O)Cc3ccccc3)cccc2C1=O, which Potency is on record?
Answer: The Potency was inconclusive: 29.1 µM [inhibitor, single point].

Question: For Cc1cccc(OCC(=O)NNC(=O)c2cc(S(=O)(=O)N(C)C)ccc2N2CCCC2)c1, which Potency is on record?
Answer: Its Potency is inconclusive: 13 µM [inhibitor, partial curve, poor fit].

Question: Which Potency does the source give for COc1cccc(/C=N/NC(=O)c2ccccc2NC(=O)c2ccco2)c1OC here?
Answer: The Potency was “inactive”.

Question: For COc1ccc(/C=N/Nc2cc(C)nc(-n3nc(C)cc3C)n2)cc1, which Potency is on record?
Answer: Its Potency is active: 8.2 µM.

Question: With CC(C)c1nc(N2CCCC2)c(C#N)c2c1CCCC2 as the compound, how does the Potency read?
Answer: Its Potency is inconclusive: 35.5 µM [activator, single point].

Question: For CCc1ccc(S(=O)(=O)c2ccc(-n3nc(C)cc3N)cc2)cc1, which Potency is on record?
Answer: The Potency was inconclusive: 16.4 µM [inhibitor, single point].

Question: Which Potency does the source give for CCn1c(CNC(=O)COc2ccc(C(C)C)cc2)nnc1SCC(=O)NC1CCCCC1C (stereo unspecified) here?
Answer: Its Potency is active: 16.4 µM.

Question: For CCOc1cc(/C=N/NC(=O)c2ccccc2OCc2ccc(F)cc2)ccc1O, which Potency is on record?
Answer: Its Potency is active: 5.8 µM.

Question: Which Potency does the source give for c1ccc(-c2noc(-c3ccc4c(c3)OCO4)n2)cc1 here?
Answer: Its Potency is inconclusive: 2.31 µM [activator, partial curve].

Question: Which Potency does the source give for COCCn1c(=S)[nH]c2sc3c(c2c1=O)CCCC3 here?
Answer: Its Potency is inconclusive: 29.1 µM [inhibitor, single point].

Question: With C=CC[C@H](CC(=O)N(CCO)Cc1ccccc1)C(=O)N[C@H](COC(=O)[C@@H](CC=C)Cc1ccc(F)cc1)C(C)(C)C as the compound, how does the Potency read?
Answer: Its Potency is inconclusive: 29.1 µM [inhibitor, single point].

Question: For C=CCc1cc(C=O)cc(OC)c1OCc1ccc(Cl)cc1, which Potency is on record?
Answer: Its Potency is inconclusive: 14.1 µM [activator, single point].

Question: With O=S(=O)(NCCCCNS(=O)(=O)c1c(F)cccc1F)c1ccc2c(c1)OCCO2 as the compound, how does the Potency read?
Answer: Its Potency is “inactive”.

Question: Which Potency does the source give for COc1ccc(NC(=O)N(C2CCCCC2)C2CCN(C(C)C)CC2)c(OC)c1 here?
Answer: The Potency was “inactive”.

Question: Which Potency does the source give for CCOc1ccc(S(=O)(=O)Nc2cc(S(=O)(=O)N(CC)CC)ccc2N2CCCC2)cc1 here?
Answer: The Potency was “inactive”.

Question: With O=C(NCCc1ccc(Cl)cc1)c1ccc(Br)s1 as the compound, how does the Potency read?
Answer: The Potency was inconclusive: 14.6 µM [activator, partial curve].

Question: With CCCCCn1nc(C(=O)N2CCc3ccccc32)c2ccccc2c1=O as the compound, how does the Potency read?
Answer: Its Potency is active: 11.2 µM.

Question: With COc1ccc(C(=O)CSc2ccccc2C(=O)O)cc1 as the compound, how does the Potency read?
Answer: Its Potency is inconclusive: 20.6 µM [activator, partial curve].

Question: With Cc1nn(C)cc1/C=C/C(=O)c1cccs1 as the compound, how does the Potency read?
Answer: Its Potency is inconclusive: 10.3 µM [activator, partial curve].

Question: Which Potency does the source give for Cc1nn2c(-c3ccc(F)cc3)ccnc2c1Br here?
Answer: The Potency was “inactive”.

Question: For C#CCOCCOCCOCCNc1nc(N2CCN(C(=O)CCCCCCCCCCNC(=O)[C@@H](CCSC)n3cc(CCO)nn3)CC2)nc(N2CCN(C(=O)CCCCCCCCCCNC(=O)[C@H]([C@@H](C)CC)n3cc(CCCCN=C(N)N)nn3)CC2)n1, which Potency is on record?
Answer: The Potency was inconclusive: 3.55 µM [inhibitor, partial curve].

Question: For COc1ccc(CNC(=O)c2cc(=O)c3ccccc3o2)cc1, which Potency is on record?
Answer: The Potency was inconclusive: 23.1 µM [inhibitor, single point].

Question: Which Potency does the source give for O=C(COC(=O)c1ccc(OC(F)F)cc1)NCCNC(=O)COC(=O)c1ccc(OC(F)F)cc1 here?
Answer: The Potency was inconclusive: 16.4 µM [activator, single point].

Question: For CCOc1ccccc1NC(=O)Nc1ccc2c(c1)OCO2, which Potency is on record?
Answer: The Potency was inconclusive: 6.51 µM [activator, single point].

Question: For O=C(c1ccc(O)cc1)c1ccc(C(=O)c2ccc(O)cc2)cc1, which Potency is on record?
Answer: Its Potency is inconclusive: 20.6 µM [inhibitor, partial curve] and inconclusive: 23.1 µM [inhibitor, single point].

Question: For CCOc1ccc(CN2CCC(n3nccc3NC(=O)CCCc3ccccc3)CC2)cc1, which Potency is on record?
Answer: Its Potency is inconclusive: 11.6 µM [inhibitor, partial curve, poor fit].

Question: With Cn1c(COc2ccccc2)nnc1SCC(=O)NC1CCCC1 as the compound, how does the Potency read?
Answer: Its Potency is inconclusive: 20.6 µM [activator, partial curve, poor fit].
